PubChem BioAssay AID1053208 – Peter MacCallum Cancer Centre – 2014
Assay: 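Synthetic lethal interactions between gene loss and doxorubicin in osteosarcoma cells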 (primary screen). Cell system: mouse osteosarcoma cells, early-passage culture from an engineered mouse model of fibroblastic bone tumour. Reagent: siRNA pool against mouse genes, 40 nM. Timing: about 120 h (48 h before drug, then 72 h with drug). Treatment: doxorubicin 100 nM for 72 h, roughly 30-40% inhibitory dose. Measured: 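Viability read as ATP luminescence after 72 h of 100 nM doxorubicin or none, duplicate wells averaged, scaled to non-targeting siRNA, then expressed as robust z-scores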. Direction: viability z-score with doxorubicin: higher = more viable cells under doxorubicin; viability z-score without drug: higher = more viable cells with knock-down alone. Hit rule: 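Called active if knock-down leaves viability unchanged without drug (z within -2 to 2) but lowers it with doxorubicin (z at or under -2)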.
In all, the deposit lists about 17,000 reagents; shown is a random part of them. In the full data, 788 (4.7%) got an active call. 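Calls rest on z-score classes alone; an extra cut-off of viability at most 70% of control was not applied to them.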 Entries without a mark were called inactive. Not all columns of the deposit are shown. Reagent sequences are not shown.

With knock-down of Cldnd1 (GeneID 224250), the screen gave combined z-score class high cell count without drug only; viability z-score with doxorubicin 0.79; viability z-score without drug 2.36.
Knock-down of Bmx (GeneID 12169) resulted in: combined z-score class no change with or without drug; viability z-score with doxorubicin -0.45; viability z-score without drug 0.84.
Against Or5h24-ps1 (GeneID 404309), the values are combined z-score class no change with or without drug; viability z-score with doxorubicin -0.22; viability z-score without drug 0.17.
Silencing of Katnal1 (GeneID 231912) resulted in: combined z-score class no change with or without drug; viability z-score with doxorubicin 0.45; viability z-score without drug -0.51.

2 consecutive records from above, quoted:
Cldnd1 (GeneID 224250) — combined z-score class = high cell count without drug only; viability z-score with doxorubicin = 0.79; viability z-score without drug = 2.36
Bmx (GeneID 12169) — combined z-score class = no change with or without drug; viability z-score with doxorubicin = -0.45; viability z-score without drug = 0.84

The list goes on:
With knock-down of Cfap74 (GeneID 544678), the record shows combined z-score class no change with or without drug; viability z-score with doxorubicin -1.8; viability z-score without drug -1.52.
Against Ppih (GeneID 66101), the entry reads combined z-score class no change with or without drug; viability z-score with doxorubicin -0.67; viability z-score without drug -0.84.
Depletion of Prpf19 (GeneID 28000) resulted in: combined z-score class low cell count with doxorubicin only (active); viability z-score with doxorubicin -2.25; viability z-score without drug -1.18.
Silencing of Il21 (GeneID 60505) came out at: combined z-score class no change with or without drug; viability z-score with doxorubicin 0.56; viability z-score without drug -0.17.
For Cnga2 (GeneID 12789) the deposit lists combined z-score class no change with or without drug; viability z-score with doxorubicin 0; viability z-score without drug -0.51.
For Foxh1 (GeneID 14106) the deposit lists combined z-score class no change with or without drug; viability z-score with doxorubicin 0.67; viability z-score without drug 0.84.
Knock-down of Prkar1a (GeneID 19084) gave: combined z-score class no change with or without drug; viability z-score with doxorubicin 0.56; viability z-score without drug -1.52.
Gpr151 (GeneID 240239) scored combined z-score class no change with or without drug; viability z-score with doxorubicin -0.45; viability z-score without drug -0.84.
